Test results as given in PMC3237552.
Results are given in words; binding and its absence hold for the method and conditions named. In cells and extracts the contact can be indirect. These calls come from enrichment with a bait or labelling near it, and not all partners need be listed.

Sequences of proteins named here, by UniProt entry; tags and fusion partners are left off. Residues count along the entry.
UniProt P03950, residues 25-147: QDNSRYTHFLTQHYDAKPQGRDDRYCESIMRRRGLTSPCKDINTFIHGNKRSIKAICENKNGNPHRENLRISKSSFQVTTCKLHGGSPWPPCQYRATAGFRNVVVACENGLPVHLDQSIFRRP
UniProt O43707: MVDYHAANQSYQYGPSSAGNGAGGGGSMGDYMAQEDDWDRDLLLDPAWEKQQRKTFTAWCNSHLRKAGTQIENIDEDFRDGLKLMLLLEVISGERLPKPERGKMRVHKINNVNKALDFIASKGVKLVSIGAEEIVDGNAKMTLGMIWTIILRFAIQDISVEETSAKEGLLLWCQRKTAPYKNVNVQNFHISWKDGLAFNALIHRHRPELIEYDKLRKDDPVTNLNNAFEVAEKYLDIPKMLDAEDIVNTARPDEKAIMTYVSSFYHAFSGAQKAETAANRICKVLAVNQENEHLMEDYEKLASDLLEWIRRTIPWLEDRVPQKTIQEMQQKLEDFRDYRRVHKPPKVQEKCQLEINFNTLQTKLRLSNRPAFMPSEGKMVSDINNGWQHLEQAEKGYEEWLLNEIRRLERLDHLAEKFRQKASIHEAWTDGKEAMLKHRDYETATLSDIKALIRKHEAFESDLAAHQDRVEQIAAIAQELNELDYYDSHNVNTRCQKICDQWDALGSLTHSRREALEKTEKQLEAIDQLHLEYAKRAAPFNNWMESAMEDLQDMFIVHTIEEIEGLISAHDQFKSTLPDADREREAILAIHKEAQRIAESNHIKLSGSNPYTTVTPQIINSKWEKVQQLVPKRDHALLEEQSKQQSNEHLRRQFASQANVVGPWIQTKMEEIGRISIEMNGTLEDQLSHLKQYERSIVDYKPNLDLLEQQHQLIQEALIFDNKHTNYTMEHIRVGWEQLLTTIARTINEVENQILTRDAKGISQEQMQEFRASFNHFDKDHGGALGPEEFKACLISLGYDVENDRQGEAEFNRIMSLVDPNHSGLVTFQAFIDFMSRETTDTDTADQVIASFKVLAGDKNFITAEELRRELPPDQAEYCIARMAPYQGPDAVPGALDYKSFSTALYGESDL
UniProt Q92466: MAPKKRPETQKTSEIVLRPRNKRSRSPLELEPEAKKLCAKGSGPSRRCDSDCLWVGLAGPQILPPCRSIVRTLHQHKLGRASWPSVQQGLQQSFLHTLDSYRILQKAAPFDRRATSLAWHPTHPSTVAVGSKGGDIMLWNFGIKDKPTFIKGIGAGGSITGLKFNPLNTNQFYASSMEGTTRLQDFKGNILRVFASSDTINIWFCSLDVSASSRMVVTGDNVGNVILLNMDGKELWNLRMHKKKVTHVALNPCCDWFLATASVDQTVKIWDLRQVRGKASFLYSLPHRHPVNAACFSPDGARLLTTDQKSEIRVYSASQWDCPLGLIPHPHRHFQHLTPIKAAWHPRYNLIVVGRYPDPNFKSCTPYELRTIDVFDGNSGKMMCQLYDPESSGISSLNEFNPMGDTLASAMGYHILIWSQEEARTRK
UniProt Q96AE4: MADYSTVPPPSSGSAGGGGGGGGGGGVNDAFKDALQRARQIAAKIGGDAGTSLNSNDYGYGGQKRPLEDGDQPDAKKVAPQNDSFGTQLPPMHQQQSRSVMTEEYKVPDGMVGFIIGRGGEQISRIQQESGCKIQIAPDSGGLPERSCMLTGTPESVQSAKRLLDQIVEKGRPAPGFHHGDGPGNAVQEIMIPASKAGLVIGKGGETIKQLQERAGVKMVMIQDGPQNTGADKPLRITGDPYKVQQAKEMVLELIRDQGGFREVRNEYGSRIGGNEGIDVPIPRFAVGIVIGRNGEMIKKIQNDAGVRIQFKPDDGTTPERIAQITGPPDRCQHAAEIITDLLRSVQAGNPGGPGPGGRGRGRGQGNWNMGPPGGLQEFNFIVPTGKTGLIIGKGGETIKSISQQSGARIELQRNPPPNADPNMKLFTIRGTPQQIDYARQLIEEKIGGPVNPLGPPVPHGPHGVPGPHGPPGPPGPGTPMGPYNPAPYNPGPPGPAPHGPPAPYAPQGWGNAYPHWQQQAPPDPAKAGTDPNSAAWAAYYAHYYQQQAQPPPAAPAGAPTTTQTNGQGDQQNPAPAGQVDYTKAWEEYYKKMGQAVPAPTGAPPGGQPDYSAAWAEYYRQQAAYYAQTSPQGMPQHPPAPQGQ
UniProt P38646, residues 47-679: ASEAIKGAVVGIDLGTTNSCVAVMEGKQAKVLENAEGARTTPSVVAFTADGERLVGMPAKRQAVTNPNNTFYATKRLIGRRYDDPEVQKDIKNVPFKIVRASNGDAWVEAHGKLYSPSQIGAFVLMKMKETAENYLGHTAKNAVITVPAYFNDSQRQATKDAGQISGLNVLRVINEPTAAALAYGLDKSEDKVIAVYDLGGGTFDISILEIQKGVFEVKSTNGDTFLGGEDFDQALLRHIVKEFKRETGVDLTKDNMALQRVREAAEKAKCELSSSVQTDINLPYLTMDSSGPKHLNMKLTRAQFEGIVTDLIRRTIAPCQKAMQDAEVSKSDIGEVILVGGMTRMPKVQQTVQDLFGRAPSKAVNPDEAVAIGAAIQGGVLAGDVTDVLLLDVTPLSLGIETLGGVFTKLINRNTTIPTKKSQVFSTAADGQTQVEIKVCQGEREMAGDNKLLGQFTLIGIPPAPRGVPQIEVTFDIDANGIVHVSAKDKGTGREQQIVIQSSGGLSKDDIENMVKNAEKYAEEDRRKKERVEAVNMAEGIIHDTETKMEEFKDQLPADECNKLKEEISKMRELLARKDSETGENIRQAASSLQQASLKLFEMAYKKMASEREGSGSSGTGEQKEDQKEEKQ
UniProt P35579: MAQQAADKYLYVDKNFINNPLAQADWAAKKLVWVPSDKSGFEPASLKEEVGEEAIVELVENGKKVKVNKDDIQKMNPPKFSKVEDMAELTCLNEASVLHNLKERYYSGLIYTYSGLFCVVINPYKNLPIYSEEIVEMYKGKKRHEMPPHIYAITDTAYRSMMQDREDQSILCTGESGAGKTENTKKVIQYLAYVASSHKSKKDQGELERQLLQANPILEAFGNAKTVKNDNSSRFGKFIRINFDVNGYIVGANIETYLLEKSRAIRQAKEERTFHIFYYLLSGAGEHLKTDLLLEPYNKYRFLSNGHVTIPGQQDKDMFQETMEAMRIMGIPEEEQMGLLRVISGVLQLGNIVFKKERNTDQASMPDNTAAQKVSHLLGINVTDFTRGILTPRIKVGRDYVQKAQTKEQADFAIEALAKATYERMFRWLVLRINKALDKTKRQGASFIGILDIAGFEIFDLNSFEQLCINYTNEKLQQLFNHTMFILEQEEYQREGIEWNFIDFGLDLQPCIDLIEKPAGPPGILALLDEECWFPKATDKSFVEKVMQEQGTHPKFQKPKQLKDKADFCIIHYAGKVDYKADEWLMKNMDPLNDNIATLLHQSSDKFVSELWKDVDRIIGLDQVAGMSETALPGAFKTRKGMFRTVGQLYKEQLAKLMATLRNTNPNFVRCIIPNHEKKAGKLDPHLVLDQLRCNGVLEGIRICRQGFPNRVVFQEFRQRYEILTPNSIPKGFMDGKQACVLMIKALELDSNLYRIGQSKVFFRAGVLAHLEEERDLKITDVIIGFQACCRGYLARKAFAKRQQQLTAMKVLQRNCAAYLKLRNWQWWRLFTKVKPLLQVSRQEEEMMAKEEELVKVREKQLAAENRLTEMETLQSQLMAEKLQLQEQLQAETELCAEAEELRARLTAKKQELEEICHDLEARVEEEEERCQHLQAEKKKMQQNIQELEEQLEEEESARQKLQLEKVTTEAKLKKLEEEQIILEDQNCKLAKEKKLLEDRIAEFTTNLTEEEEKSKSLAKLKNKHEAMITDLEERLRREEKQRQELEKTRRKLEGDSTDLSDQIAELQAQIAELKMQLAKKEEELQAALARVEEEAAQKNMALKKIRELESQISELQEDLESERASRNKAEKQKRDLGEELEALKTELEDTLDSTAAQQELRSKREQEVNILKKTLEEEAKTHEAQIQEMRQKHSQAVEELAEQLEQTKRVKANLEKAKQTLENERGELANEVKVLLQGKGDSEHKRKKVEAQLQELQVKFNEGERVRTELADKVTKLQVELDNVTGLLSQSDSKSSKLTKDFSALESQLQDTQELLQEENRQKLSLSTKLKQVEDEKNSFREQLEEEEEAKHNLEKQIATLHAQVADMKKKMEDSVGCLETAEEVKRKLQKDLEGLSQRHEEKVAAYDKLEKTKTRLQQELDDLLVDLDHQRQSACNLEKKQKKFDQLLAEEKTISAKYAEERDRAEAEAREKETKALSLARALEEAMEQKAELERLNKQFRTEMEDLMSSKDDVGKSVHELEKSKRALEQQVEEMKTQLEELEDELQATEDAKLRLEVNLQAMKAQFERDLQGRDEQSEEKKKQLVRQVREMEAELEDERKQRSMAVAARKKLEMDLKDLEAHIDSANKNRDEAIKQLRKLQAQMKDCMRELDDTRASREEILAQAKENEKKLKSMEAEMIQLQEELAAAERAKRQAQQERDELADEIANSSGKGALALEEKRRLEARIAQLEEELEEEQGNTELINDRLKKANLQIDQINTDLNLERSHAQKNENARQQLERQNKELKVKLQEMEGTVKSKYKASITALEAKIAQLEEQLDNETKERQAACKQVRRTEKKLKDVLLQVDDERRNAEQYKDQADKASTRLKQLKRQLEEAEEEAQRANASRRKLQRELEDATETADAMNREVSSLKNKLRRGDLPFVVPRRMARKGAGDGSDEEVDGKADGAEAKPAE
UniProt P67809: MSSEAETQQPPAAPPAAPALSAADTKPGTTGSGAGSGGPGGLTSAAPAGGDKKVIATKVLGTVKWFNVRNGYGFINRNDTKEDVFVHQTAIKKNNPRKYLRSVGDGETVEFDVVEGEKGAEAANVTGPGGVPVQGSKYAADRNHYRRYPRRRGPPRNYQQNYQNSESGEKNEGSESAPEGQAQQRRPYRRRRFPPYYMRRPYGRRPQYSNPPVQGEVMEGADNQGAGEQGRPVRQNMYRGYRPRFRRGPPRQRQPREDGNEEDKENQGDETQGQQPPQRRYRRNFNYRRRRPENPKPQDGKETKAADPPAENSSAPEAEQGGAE

Target: Angiogenin (human (endogenous in HeLa)) (UniProt P03950)
Assay: affinity purification with mass spectrometry; HeLa cells with or without 500 ng/mL exogenous ANG for 24 h, lysed in RIPA buffer; goat anti-ANG antibody at 4°C overnight, protein G agarose; SDS-PAGE, silver stain; bands enhanced in the ANG-treated sample cut out, trypsin digestion, Q-TOF MS

binding | Molecule
binds | Ras GTPase-activating-like protein IQGAP1 (from UniProt P46940 1-1657)
binds | Argininosuccinate synthetase (protein, UniProt P00966 1-412) MSSKGSVVLAYSGGLDTSCILVWLKEQGYDVIAYLANIGQKEDFEEARKKALKLGAKKVFIEDVSREFVEEFIWPAIQSSALYEDRYLLGTSLARPCIARKQVEIAQREGAKYVSHGATGKGNDQVRFELSCYSLAPQIKVIAPWRMPEFYNRFKGRNDLMEYAKQHGIPIPVTPKNPWSMDENLMHISYEAGILENPKNQAPPGLYTKTQDPAKAPNTPDILEIEFKKGVPVKVTNVKDGTTHQTSLELFMYLNEVAGKHGVGRIDIVENRFIGMKSRGIYETPAGTILYHAHLDIEAFTMDREVRKIKQGLGLKFAELVYTGFWHSPECEFVRHCIAKSQERVEGKVQVSVLKGQVYILGRESPLSLYNEELVSMNVQGDYEPTDATGFININSLRLKEYHRLQSKVTAK
binds | E3 ubiquitin-protein ligase UHRF1 (protein, UniProt Q96T88 1-793) MWIQVRTMDGRQTHTVDSLSRLTKVEELRRKIQELFHVEPGLQRLFYRGKQMEDGHTLFDYEVRLNDTIQLLVRQSLVLPHSTKERDSELSDTDSGCCLGQSESDKSSTHGEAAAETDSRPADEDMWDETELGLYKVNEYVDARDTNMGAWFEAQVVRVTRKAPSRDEPCSSTSRPALEEDVIYHVKYDDYPENGVVQMNSRDVRARARTIIKWQDLEVGQVVMLNYNPDNPKERGFWYDAEISRKRETRTARELYANVVLGDDSLNDCRIIFVDEVFKIERPGEGSPMVDNPMRRKSGPSCKHCKDDVNRLCRVCACHLCGGRQDPDKQLMCDECDMAFHIYCLDPPLSSVPSEDEWYCPECRNDASEVVLAGERLRESKKKAKMASATSSSQRDWGKGMACVGRTKECTIVPSNHYGPIPGIPVGTMWRFRVQVSESGVHRPHVAGIHGRSNDGAYSLVLAGGYEDDVDHGNFFTYTGSGGRDLSGNKRTAEQSCDQKLTNTNRALALNCFAPINDQEGAEAKDWRSGKPVRVVRNVKGGKNSKYAPAEGNRYDGIYKVVKYWPEKGKSGFLVWRYLLRRDDDEPGPWTKEGKDRIKKLGLTMQYPEGYLEALANREREKENSKREEEEQQEGGFASPRTGKGKWKRKSAGGGPSRAGSPRRTSKKTKVEPYSLTAQQSSLIREDKSNAKLWNEVLASLKDRPASGSPFQLFLSKVEETFQCICCQELVFRPITTVCQHNVCKDCLDRSFRAQVFSCPACRYDLGRSYAMQVNQPLQTVLNQLFPGYGNGR
binds | EF-hand domain-containing protein D2 (protein, UniProt Q96C19 1-240) MATDELATKLSRRLQMEGEGGGETPEQPGLNGAAAAAAGAPDEAAEALGSADCELSAKLLRRADLNQGIGEPQSPSRRVFNPYTEFKEFSRKQIKDMEKMFKQYDAGRDGFIDLMELKLMMEKLGAPQTHLGLKNMIKEVDEDFDSKLSFREFLLIFRKAAAGELQEDSGLCVLARLSEIDVSSEGVKGAKSFFEAKVQAINVSSRFEEEIKAEQEERKKQAEEMKQRKAAFKELQSTFK

Further lines, the molecule ahead of its results:

Molecule | binding
Alpha-actinin-4 (from UniProt O43707 1-911) | binds
DNA damage-binding protein 2 (from UniProt Q92466 1-427) | binds
Far upstream element-binding protein 1 (from UniProt Q96AE4 1-644) | binds
Heat shock 70 kDa protein 9 (from UniProt P38646 47-679) | binds
Myosin-9 (from UniProt P35579 1-1960) | binds
Y-box-binding protein 1 (from UniProt P67809 1-324) | binds
